Consider five compounds from PubChem BioAssay AID222 (DTP/NCI, 2004).

This assay relates to C57BL/6 mice, intracerebral ependymoblastoma, median survival T/C. Description: NCI In Vivo Anticancer Drug Screen. Data for tumor model Ependymoblastoma (intracerebral) in C57BL/6 mice. The following applies: T/C endpoint: median survival time, higher T/C = longer survival. How it is done: The antitumor activity of compounds was measured in mice bearing transplantable tumors. Survival or tumor size were measured and the results are expressed as the measurement made in the treated group (T) divided by the measurement made in the vehicle treated control group (C). The tumor model used in this assay is Ependymoblastoma (intracerebral) in C57BL/6 mice

Where [1] appears, read: dose: 1.0 mg/kg/injection, schedule: Q01DX001 (ip), vehicle: saline.

Structures are written as SMILES. The list does not hold the whole screen: it is rich in T/C values a quarter to a half above the control, in often repeated tests (any T/C) and in doses without a T/C. Other doses and runs of a compound stand elsewhere. T/C is the treated group as % of the vehicle group. Some entries give survivors of the animals treated and no T/C: the source files T/C as zero there, which appears to mark a toxic dose or a test without result, not a measured value. Some survivor counts are full or nearly so, which does not show that the dose was tolerated: the source hardly ever lists a survival T/C far under the control, and the zero likely stands for such cases as well. Survivors were counted at the toxicity check, usually on the fifth day, unless a day is given; later deaths do not show. Schedule codes are those of the source, read here as Q, the interval in days (D) or hours (H), X, the number of doses. Counts like (3×) say how often a value occurs here. Some entries were tested several times; their values stand side by side, smallest first. Some schedules carry Z or #; the key to these is not given. For survival time, the PubChem record calls one and a half times the control and up active, and a quarter to a half above the control has no call in these data; cut-offs in other NCI protocols can differ. Some T/C values are followed by the survivors on the day toxicity was checked, most often the fifth; without a count, all were alive then.

For `CN(C)CCCNc1c2ccccc2nc2cccc([N+](=O)[O-])c12`, the survivor count was 10 of 10 (dose: 0.06 mg/kg/injection, schedule: Q## X006 (ip), vehicle: saline); 4 of 10 (dose: 0.12 mg/kg/injection, schedule: Q01DX005 (ip), vehicle: saline); 10 of 10 (dose: 0.12 mg/kg/injection, schedule: Q## X006 (ip), vehicle: saline); 3 of 10, 7 of 10, 9 of 10 (dose: 0.25 mg/kg/injection, schedule: Q01DX005 (ip), vehicle: saline); 10 of 10 (dose: 0.25 mg/kg/injection, schedule: Q## X006 (ip), vehicle: saline); 0 of 10 and 2 of 10 (dose: 0.5 mg/kg/injection, schedule: Q01DX005 (ip), vehicle: saline). Also, the survivor count reads like this: (dose: 0.5 mg/kg/injection, schedule: Q#A X002 (ip), vehicle: saline) 1 of 10; under setting [1], 4 of 10, 8 of 10, 10 of 10; (dose: 1.0 mg/kg/injection, schedule: Q01DX001 (oral), vehicle: saline) 5 of 10; (dose: 1.0 mg/kg/injection, schedule: Q01DX005 (ip), vehicle: saline) 0 of 10 and 1 of 10; (dose: 2.0 mg/kg/injection, schedule: Q01DX001 (ip), vehicle: saline) 2 of 10 and 9 of 10; (dose: 4.0 mg/kg/injection, schedule: Q01DX001 (ip), vehicle: saline) 0 of 10 and 1 of 10. The survivor count runs as follows: (dose: 4.0 mg/kg/injection, schedule: Q01DX001 (oral), vehicle: saline) 6 of 10; (dose: 4.0 mg/kg/injection, schedule: Q#A X002 (ip), vehicle: saline) 0 of 10; (dose: 8.0 mg/kg/injection, schedule: Q01DX001 (ip), vehicle: saline) 0 of 10; (dose: 16.0 mg/kg/injection, schedule: Q01DX001 (oral), vehicle: saline) 1 of 10; (dose: 31.2 micrograms/kg/injection, schedule: Q01DX005 (ip), vehicle: saline) 10 of 10; (dose: 125.0 micrograms/kg/injection, schedule: Q01DX005 (ip), vehicle: saline) 6 of 10. The survivor count is, setting by setting: (dose: 250.0 micrograms/kg/injection, schedule: Q01DX005 (ip), vehicle: saline) 10 of 10 (2×); (dose: 500.0 micrograms/kg/injection, schedule: Q01DX005 (ip), vehicle: saline) 10 of 10; (dose: 1000.0 micrograms/kg/injection, schedule: Q01DX005 (ip), vehicle: saline) 2 of 10. Further, the T/C is 125 % of control [8 of 10 alive] (dose: 0.25 mg/kg/injection, schedule: Q#A X002 (ip), vehicle: saline); 86, 89 (2×), 90 % of control [3 of 10 alive] (dose: 0.5 mg/kg/injection, schedule: Q01DX001 (ip), vehicle: saline); 91 % of control [4 of 10 alive] under setting [1]; 94 % of control (dose: 125.0 micrograms/kg/injection, schedule: Q01DX005 (ip), vehicle: saline, evaluated on day 45); 92 and 96 % of control (dose: 125.0 micrograms/kg/injection, schedule: Q01DX005 (ip), vehicle: saline, evaluated on day 60).
On to `CN(C)CC(=O)c1ccc(O)c(O)c1`, for which the survivor count (dose: 800.0 mg/kg/injection, schedule: Q01DX005 (ip), vehicle: saline) is recorded as 10 of 10.
On to `OC(CBr)C(O)C(O)C(O)CBr` (stereo not drawn), for which the survivor count is 8 of 8 (dose: 40.0 mg/kg/injection, schedule: Q01DX005 (ip), vehicle: saline); 0 of 10 and 10 of 10 (dose: 100.0 mg/kg/injection, schedule: Q01DX005 (ip), vehicle: Klucel (hydroxypropylcellulose) (HPC)); 8 of 8 (dose: 194.0 mg/kg/injection, schedule: Q01DX005 (ip), vehicle: saline with Tween-80); 0 of 10 and 7 of 10 (dose: 200.0 mg/kg/injection, schedule: Q01DX005 (ip), vehicle: Klucel (hydroxypropylcellulose) (HPC)); 10 of 10 (dose: 200.0 mg/kg/injection, schedule: Q01DX005 (ip), vehicle: saline); 7 of 8 (dose: 324.0 mg/kg/injection, schedule: Q01DX005 (ip), vehicle: saline with Tween-80). The survivor count is given as 10 of 10 (dose: 400.0 mg/kg/injection, schedule: Q01DX005 (ip), vehicle: saline); 10 of 10 (dose: 512.0 mg/kg/injection, schedule: Q01DX005 (oral), vehicle: Klucel (hydroxypropylcellulose) (HPC)); 8 of 8 (dose: 540.0 mg/kg/injection, schedule: Q01DX005 (ip), vehicle: saline with Tween-80); 8 of 8 (dose: 900.0 mg/kg/injection, schedule: Q01DX005 (ip), vehicle: saline with Tween-80); 10 of 10 (dose: 1024.0 mg/kg/injection, schedule: Q01DX005 (oral), vehicle: Klucel (hydroxypropylcellulose) (HPC)); 7 of 8 (dose: 1350.0 mg/kg/injection, schedule: Q01DX005 (ip), vehicle: saline with Tween-80). Further, the survivor count (dose: 2020.0 mg/kg/injection, schedule: Q01DX005 (ip), vehicle: saline with Tween-80) was 6 of 8. Moreover, the T/C is, setting by setting: (dose: 100.0 mg/kg/injection, schedule: Q01DX005 (ip), vehicle: Klucel (hydroxypropylcellulose) (HPC), evaluated on day 60) 98, 110, 114, 119, 128, 146 % of control; (dose: 100.0 mg/kg/injection, schedule: Q01DX005 (ip), vehicle: Klucel (hydroxypropylcellulose) (HPC), evaluated on day 90) 98 % of control [2 of 10 alive]; (dose: 100.0 mg/kg/injection, schedule: Q01DX005 (ip), vehicle: saline) 137 % of control; (dose: 128.0 mg/kg/injection, schedule: Q01DX005 (oral), vehicle: Klucel (hydroxypropylcellulose) (HPC)) 132 % of control; (dose: 200.0 mg/kg/injection, schedule: Q01DX005 (ip), vehicle: Klucel (hydroxypropylcellulose) (HPC), evaluated on day 60) 89, 107, 118, 119 [9 of 10 alive], 121, 231 % of control; (dose: 200.0 mg/kg/injection, schedule: Q01DX005 (ip), vehicle: Klucel (hydroxypropylcellulose) (HPC), evaluated on day 90) 109 % of control [6 of 10 alive]. Also, the T/C (dose: 256.0 mg/kg/injection, schedule: Q01DX005 (oral), vehicle: Klucel (hydroxypropylcellulose) (HPC)) was 138 % of control.
As to `C[CH2][Ge]1([CH2]C)[CH2]CC2(CCN(CCCN(C)C)C2)C[CH2]1`, the T/C runs as follows: (dose: 16.0 mg/kg/injection, schedule: Q01DX005 (ip), vehicle: saline, evaluated on day 45) 96 % of control; (dose: 16.0 mg/kg/injection, schedule: Q01DX005 (ip), vehicle: saline, evaluated on day 60) 95 [9 of 10 alive], 97, 102 % of control; (dose: 32.0 mg/kg/injection, schedule: Q01DX005 (ip), vehicle: saline, evaluated on day 45) 96 % of control [9 of 10 alive]; (dose: 32.0 mg/kg/injection, schedule: Q01DX005 (ip), vehicle: saline, evaluated on day 60) 95, 96, 97 [9 of 10 alive], 105, 113, 118 % of control; (dose: 64.0 mg/kg/injection, schedule: Q01DX005 (ip), vehicle: saline, evaluated on day 45) 109 % of control; (dose: 64.0 mg/kg/injection, schedule: Q01DX005 (ip), vehicle: saline, evaluated on day 60) 93 [9 of 10 alive], 102, 103, 122 % of control. Moreover, the survivor count by setting is: (dose: 64.0 mg/kg/injection, schedule: Q01DX005 (ip), vehicle: saline) 2 of 10 and 8 of 10; (dose: 128.0 mg/kg/injection, schedule: Q01DX005 (ip), vehicle: saline) 0 of 10 (2×), 1 of 10, 3 of 10; (dose: 256.0 mg/kg/injection, schedule: Q01DX005 (ip), vehicle: saline) 0 of 10; (dose: 512.0 mg/kg/injection, schedule: Q01DX005 (ip), vehicle: saline) 0 of 10.
With `O=C1C(=O)c2ccccc2C(O)=C1CC=C(Cl)Cl`, the survivor count (dose: 128.0 mg/kg/injection, schedule: Q01DX005 (ip), vehicle: Klucel (hydroxypropylcellulose) (HPC)) is 0 of 10 and 1 of 10.
